Experimental data: article PMC4063256
These are yes or no findings as the source states them, for the method shown. Binding seen in cells or lysates may run through a third protein. These calls come from enrichment with a bait or labelling near it, and not all partners need be listed.

By UniProt entry, the sequences of proteins in these tests, tags left out.
UniProt Q5T5U3: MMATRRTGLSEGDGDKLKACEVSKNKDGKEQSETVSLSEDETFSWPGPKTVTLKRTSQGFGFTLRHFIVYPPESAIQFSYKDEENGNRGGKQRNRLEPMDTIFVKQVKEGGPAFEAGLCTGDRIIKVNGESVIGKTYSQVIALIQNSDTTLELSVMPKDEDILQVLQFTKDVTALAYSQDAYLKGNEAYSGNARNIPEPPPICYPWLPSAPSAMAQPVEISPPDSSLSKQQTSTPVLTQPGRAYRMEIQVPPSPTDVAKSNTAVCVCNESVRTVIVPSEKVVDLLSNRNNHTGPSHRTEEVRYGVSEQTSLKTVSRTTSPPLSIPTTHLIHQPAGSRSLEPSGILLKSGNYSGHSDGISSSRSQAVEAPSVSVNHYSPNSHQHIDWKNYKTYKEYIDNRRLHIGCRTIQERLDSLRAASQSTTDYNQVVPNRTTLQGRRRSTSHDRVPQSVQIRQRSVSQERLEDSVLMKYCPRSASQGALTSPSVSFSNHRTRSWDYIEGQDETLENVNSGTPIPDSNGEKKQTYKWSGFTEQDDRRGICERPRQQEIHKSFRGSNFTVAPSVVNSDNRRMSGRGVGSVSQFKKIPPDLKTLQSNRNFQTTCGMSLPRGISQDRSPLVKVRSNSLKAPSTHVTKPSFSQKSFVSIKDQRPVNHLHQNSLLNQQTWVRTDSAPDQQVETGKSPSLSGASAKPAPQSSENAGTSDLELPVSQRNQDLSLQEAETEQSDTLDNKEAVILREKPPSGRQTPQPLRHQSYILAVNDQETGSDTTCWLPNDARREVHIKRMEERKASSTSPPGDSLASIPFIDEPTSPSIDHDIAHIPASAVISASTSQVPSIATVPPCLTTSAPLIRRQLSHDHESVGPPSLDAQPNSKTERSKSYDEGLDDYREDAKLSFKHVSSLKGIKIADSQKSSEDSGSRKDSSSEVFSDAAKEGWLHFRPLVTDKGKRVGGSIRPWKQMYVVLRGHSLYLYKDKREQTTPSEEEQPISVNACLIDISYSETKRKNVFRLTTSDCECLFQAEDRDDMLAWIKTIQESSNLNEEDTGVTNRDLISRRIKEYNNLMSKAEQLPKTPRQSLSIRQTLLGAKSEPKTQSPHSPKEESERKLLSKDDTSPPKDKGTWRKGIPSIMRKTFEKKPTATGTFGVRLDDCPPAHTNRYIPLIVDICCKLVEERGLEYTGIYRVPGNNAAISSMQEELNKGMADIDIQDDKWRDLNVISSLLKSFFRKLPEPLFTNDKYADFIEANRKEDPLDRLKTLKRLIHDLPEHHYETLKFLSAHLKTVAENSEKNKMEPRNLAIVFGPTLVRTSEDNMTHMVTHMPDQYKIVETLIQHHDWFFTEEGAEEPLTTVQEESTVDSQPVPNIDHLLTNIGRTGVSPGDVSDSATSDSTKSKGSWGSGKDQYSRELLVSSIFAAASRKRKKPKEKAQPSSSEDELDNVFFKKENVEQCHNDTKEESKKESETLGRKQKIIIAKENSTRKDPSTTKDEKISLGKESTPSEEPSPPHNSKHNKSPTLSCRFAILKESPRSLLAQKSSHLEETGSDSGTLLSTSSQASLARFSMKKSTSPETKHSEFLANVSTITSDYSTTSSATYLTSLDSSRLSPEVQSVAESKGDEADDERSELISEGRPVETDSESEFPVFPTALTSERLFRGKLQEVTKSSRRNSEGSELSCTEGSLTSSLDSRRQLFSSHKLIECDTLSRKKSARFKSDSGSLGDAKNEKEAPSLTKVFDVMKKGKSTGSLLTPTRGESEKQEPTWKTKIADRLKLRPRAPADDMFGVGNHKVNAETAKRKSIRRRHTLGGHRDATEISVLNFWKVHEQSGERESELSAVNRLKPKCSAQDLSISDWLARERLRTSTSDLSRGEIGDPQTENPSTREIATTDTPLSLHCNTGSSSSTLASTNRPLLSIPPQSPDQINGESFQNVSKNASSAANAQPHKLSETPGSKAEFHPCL
UniProt Q8WXI9: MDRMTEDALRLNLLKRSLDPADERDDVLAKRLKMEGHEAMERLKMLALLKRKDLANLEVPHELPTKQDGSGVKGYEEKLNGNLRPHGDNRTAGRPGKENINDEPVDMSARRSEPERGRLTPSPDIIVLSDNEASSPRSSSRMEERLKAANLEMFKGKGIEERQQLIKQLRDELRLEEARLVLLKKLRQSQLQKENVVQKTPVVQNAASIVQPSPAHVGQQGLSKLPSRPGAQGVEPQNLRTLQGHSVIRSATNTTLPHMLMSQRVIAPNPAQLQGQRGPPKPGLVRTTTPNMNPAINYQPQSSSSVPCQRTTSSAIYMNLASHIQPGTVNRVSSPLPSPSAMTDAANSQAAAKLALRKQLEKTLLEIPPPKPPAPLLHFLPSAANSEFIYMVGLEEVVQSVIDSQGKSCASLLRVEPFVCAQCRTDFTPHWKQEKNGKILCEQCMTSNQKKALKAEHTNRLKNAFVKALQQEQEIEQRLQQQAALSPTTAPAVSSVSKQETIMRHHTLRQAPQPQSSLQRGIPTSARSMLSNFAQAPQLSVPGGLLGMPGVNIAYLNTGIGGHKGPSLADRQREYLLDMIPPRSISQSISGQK
UniProt O00571: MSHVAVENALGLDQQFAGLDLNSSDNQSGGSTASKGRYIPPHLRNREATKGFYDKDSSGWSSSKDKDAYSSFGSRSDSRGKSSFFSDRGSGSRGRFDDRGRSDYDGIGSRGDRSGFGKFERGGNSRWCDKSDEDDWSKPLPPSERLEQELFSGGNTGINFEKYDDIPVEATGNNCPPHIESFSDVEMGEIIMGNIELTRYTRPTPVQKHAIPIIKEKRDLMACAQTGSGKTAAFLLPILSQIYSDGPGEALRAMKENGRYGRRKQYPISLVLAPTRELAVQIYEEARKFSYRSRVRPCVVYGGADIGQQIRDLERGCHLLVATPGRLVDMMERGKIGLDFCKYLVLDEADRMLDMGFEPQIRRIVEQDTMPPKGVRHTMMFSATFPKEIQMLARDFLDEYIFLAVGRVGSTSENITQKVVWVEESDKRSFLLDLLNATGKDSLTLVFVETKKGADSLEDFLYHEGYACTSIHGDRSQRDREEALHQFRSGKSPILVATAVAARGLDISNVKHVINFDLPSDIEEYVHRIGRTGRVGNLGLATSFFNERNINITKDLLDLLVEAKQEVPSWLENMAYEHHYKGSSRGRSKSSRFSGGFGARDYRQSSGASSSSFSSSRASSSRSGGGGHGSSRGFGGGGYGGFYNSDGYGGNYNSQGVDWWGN
UniProt Q14839: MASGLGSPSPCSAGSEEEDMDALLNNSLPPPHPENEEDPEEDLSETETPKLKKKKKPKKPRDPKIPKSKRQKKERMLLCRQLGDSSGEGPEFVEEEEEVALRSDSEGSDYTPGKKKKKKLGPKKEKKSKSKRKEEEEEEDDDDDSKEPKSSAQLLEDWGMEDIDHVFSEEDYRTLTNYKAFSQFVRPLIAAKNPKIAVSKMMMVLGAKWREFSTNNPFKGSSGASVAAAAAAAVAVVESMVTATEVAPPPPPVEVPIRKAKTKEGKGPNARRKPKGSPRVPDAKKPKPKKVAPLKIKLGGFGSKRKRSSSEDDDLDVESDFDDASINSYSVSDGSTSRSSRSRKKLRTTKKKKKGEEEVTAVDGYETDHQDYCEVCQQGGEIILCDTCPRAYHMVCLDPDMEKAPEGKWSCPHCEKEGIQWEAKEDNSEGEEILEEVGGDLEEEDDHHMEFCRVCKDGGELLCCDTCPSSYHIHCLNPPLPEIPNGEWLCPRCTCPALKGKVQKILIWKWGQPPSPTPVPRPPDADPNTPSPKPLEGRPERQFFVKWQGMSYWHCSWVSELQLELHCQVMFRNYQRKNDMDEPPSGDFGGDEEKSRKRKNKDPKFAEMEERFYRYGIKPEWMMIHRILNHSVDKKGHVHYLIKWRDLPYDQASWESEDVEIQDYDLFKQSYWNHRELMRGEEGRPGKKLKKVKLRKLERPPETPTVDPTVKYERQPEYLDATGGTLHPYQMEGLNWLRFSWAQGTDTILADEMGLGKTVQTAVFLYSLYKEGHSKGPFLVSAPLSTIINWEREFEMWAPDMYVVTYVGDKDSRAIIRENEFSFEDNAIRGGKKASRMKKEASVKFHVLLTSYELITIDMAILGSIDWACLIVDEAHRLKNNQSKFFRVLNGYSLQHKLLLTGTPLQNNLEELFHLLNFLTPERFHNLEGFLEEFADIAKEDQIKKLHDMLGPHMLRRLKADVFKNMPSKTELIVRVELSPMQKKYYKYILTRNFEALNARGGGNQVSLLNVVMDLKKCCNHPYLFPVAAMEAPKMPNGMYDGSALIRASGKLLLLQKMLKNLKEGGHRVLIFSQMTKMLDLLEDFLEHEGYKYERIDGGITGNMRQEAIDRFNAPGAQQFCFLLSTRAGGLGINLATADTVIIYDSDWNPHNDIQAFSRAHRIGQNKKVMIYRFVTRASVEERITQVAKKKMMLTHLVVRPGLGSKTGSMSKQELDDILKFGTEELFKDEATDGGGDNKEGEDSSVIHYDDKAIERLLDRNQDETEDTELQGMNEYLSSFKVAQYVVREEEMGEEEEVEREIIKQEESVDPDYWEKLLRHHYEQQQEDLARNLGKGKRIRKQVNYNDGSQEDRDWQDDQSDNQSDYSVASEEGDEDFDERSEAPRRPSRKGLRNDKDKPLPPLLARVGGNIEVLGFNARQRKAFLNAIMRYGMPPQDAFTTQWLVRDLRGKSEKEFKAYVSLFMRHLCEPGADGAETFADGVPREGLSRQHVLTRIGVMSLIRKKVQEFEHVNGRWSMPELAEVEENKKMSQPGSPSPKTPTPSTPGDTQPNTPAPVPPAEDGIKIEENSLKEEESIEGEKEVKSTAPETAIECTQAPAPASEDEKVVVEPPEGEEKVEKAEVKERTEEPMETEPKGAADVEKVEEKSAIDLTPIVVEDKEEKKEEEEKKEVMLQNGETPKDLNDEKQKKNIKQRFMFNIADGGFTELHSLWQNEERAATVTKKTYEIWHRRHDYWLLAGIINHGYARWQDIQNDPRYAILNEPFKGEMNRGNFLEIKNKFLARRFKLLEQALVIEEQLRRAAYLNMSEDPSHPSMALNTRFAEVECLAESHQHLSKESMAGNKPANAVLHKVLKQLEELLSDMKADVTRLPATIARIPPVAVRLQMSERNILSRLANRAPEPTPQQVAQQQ

B1: Transcription factor E2F7 (protein, UniProt Q96AV8 1-911)
chain: MEVNCLTLKDLISPRQPRLDFAVEDGENAQKENIFVDRSRMAPKTPIKNEPIDLSKQKKFTPERNPITPVKFVDRQQAEPWTPTANLKMLISAASPDIRDREKKKGLFRPIENKDDAFTDSLQLDVVGDSAVDEFEKQRPSRKQKSLGLLCQKFLARYPSYPLSTEKTTISLDEVAVSLGVERRRIYDIVNVLESLHLVSRVAKNQYGWHGRHSLPKTLRNLQRLGEEQKYEEQMAYLQQKELDLIDYKFGERKKDGDPDSQEQQLLDFSEPDCPSSSANSRKDKSLRIMSQKFVMLFLVSKTKIVTLDVAAKILIEESQDAPDHSKFKTKVRRLYDIANVLTSLALIKKVHVTEERGRKPAFKWIGPVDFSSSDEELVDVSASVLPELKRETYGQIQVCAKQKLARHGSFNTVQASERIQRKVNSEPSSPYREEQGSGGYSLEIGSLAAVYRQKIEDNSQGKAFASKRVVPPSSSLDPVAPFPVLSVDPEYCVNPLAHPVFSVAQTDLQAFSMQNGLNGQVDVSLASAASAVESLKPALLAGQPLVYVPSASLFMLYGSLQEGPASGSGSERDDRSSEAPATVELSSAPSAQKRLCEERKPQEEDEPATKRQSREYEDGPLSLVMPKKPSDSTDLASPKTMGNRASIPLKDIHVNGQLPAAEEISGKATANSLVSSEWGNPSRNTDVEKPSKENESTKEPSLLQYLCVQSPAGLNGFNVLLSGSQTPPTVGPSSGQLPSFSVPCMVLPSPPLGPFPVLYSPAMPGPVSSTLGALPNTGPVNFSLPGLGSIAQLLVGPTAVVNPKSSTLPSADPQLQSQPSLNLSPVMSRSHSVVQQPESPVYVGHPVSVVKLHQSPVPVTPKSIQRTHRETFFKTPGSLGDPVLKRRERNQSRNTSSAQRRLEIPSGGAD
B2: Zinc finger transcription factor TRPS1 (protein, UniProt Q9UHF7 1-1281)
chain: MVRKKNPPLRNVASEGEGQILEPIGTESKVSGKNKEFSADQMSENTDQSDAAELNHKEEHSLHVQDPSSSSKKDLKSAVLSEKAGFNYESPSKGGNFPSFPHDEVTDRNMLAFSSPAAGGVCEPLKSPQRAEADDPQDMACTPSGDSLETKEDQKMSPKATEETGQAQSGQANCQGLSPVSVASKNPQVPSDGGVRLNKSKTDLLVNDNPDPAPLSPELQDFKCNICGYGYYGNDPTDLIKHFRKYHLGLHNRTRQDAELDSKILALHNMVQFSHSKDFQKVNRSVFSGVLQDINSSRPVLLNGTYDVQVTSGGTFIGIGRKTPDCQGNTKYFRCKFCNFTYMGNSSTELEQHFLQTHPNKIKASLPSSEVAKPSEKNSNKSIPALQSSDSGDLGKWQDKITVKAGDDTPVGYSVPIKPLDSSRQNGTEATSYYWCKFCSFSCESSSSLKLLEHYGKQHGAVQSGGLNPELNDKLSRGSVINQNDLAKSSEGETMTKTDKSSSGAKKKDFSSKGAEDNMVTSYNCQFCDFRYSKSHGPDVIVVGPLLRHYQQLHNIHKCTIKHCPFCPRGLCSPEKHLGEITYPFACRKSNCSHCALLLLHLSPGAAGSSRVKHQCHQCSFTTPDVDVLLFHYESVHESQASDVKQEANHLQGSDGQQSVKESKEHSCTKCDFITQVEEEISRHYRRAHSCYKCRQCSFTAADTQSLLEHFNTVHCQEQDITTANGEEDGHAISTIKEEPKIDFRVYNLLTPDSKMGEPVSESVVKREKLEEKDGLKEKVWTESSSDDLRNVTWRGADILRGSPSYTQASLGLLTPVSGTQEQTKTLRDSPNVEAAHLARPIYGLAVETKGFLQGAPAGGEKSGALPQQYPASGENKSKDESQSLLRRRRGSGVFCANCLTTKTSLWRKNANGGYVCNACGLYQKLHSTPRPLNIIKQNNGEQIIRRRTRKRLNPEALQAEQLNKQQRGSNEEQVNGSPLERRSEDHLTESHQREIPLPSLSKYEAQGSLTKSHSAQQPVLVSQTLDIHKRMQPLHIQIKSPQESTGDPGNSSSVSEGKGSSERGSPIEKYMRPAKHPNYSPPGSPIEKYQYPLFGLPFVHNDFQSEADWLRFWSKYKLSVPGNPHYLSHVPGLPNPCQNYVPYPTFNLPPHFSAVGSDNDIPLDLAIKHSRPGPTANGASKEKTKAPPNVKNEGPLNVVKTEKVDRSTQDELSTKCVHCGIVFLDEVMYALHMSCHGDSGPFQCSICQHLCTDKYDFTTHIQRGLHRNNAQVEKNGKPKE
B3: WD repeat-containing protein C2orf44 isoform 1 (protein, UniProt Q9H6R7 1-721)
chain: MELGKGKLLRTGLNALHQAVHPIHGLAWTDGNQVVLTDLRLHSGEVKFGDSKVIGQFECVCGLSWAPPVADDTPVLLAVQHEKHVTVWQLCPSPMESSKWLTSQTCEIRGSLPILPQGCVWHPKCAILTVLTAQDVSIFPNVHSDDSQVKADINTQGRIHCACWTQDGLRLVVAVGSSLHSYIWDSAQKTLHRCSSCLVFDVDSHVCSITATVDSQVAIATELPLDKICGLNASETFNIPPNSKDMTPYALPVIGEVRSMDKEATDSETNSEVSVSSSYLEPLDLTHIHFNQHKSEGNSLICLRKKDYLTGTGQDSSHLVLVTFKKAVTMTRKVTIPGILVPDLIAFNLKAHVVAVASNTCNIILIYSVIPSSVPNIQQIRLENTERPKGICFLTDQLLLILVGKQKLTDTTFLPSSKSDQYAISLIVREIMLEEEPSITSGESQTTYSTFSAPLNKANRKKLIESLSPDFCHQNKGLLLTVNTSSQNGRPGRTLIKEIQSPLSSICDGSIALDAEPVTQPASLPRHSSTPDHTSTLEPPRLPQRKNLQSEKETYQLSKEVEILSRNLVEMQRCLSELTNRLHNGKKSSSVYPLSQDLPYVHIIYQKPYYLGPVVEKRAVLLCDGKLRLSTVQQTFGLSLIEMLHDSHWILLSADSEGFIPLTFTATQEIIIRDGSLSRSDVFRDSFSHSPGAVSSLKVFTGLAAPSLDTTGCCNHVDGMA
B4: Zinc finger E-box-binding homeobox 1 isoform a (protein, UniProt P37275 1-1124)
chain: MADGPRCKRRKQANPRRNNVTNYNTVVETNSDSDDEDKLHIVEEESVTDAADCEGVPEDDLPTDQTVLPGRSSEREGNAKNCWEDDRKEGQEILGPEAQADEAGCTVKDDECESDAENEQNHDPNVEEFLQQQDTAVIFPEAPEEDQRQGTPEASGHDENGTPDAFSQLLTCPYCDRGYKRFTSLKEHIKYRHEKNEDNFSCSLCSYTFAYRTQLERHMTSHKSGRDQRHVTQSGCNRKFKCTECGKAFKYKHHLKEHLRIHSGEKPYECPNCKKRFSHSGSYSSHISSKKCISLIPVNGRPRTGLKTSQCSSPSLSASPGSPTRPQIRQKIENKPLQEQLSVNQIKTEPVDYEFKPIVVASGINCSTPLQNGVFTGGGPLQATSSPQGMVQAVVLPTVGLVSPISINLSDIQNVLKVAVDGNVIRQVLENNQANLASKEQETINASPIQQGGHSVISAISLPLVDQDGTTKIIINYSLEQPSQLQVVPQNLKKENPVATNSCKSEKLPEDLTVKSEKDKSFEGGVNDSTCLLCDDCPGDINALPELKHYDLKQPTQPPPLPAAEAEKPESSVSSATGDGNLSPSQPPLKNLLSLLKAYYALNAQPSAEELSKIADSVNLPLDVVKKWFEKMQAGQISVQSSEPSSPEPGKVNIPAKNNDQPQSANANEPQDSTVNLQSPLKMTNSPVLPVGSTTNGSRSSTPSPSPLNLSSSRNTQGYLYTAEGAQEEPQVEPLDLSLPKQQGELLERSTITSVYQNSVYSVQEEPLNLSCAKKEPQKDSCVTDSEPVVNVIPPSANPINIAIPTVTAQLPTIVAIADQNSVPCLRALAANKQTILIPQVAYTYSTTVSPAVQEPPLKVIQPNGNQDERQDTSSEGVSNVEDQNDSDSTPPKKKMRKTENGMYACDLCDKIFQKSSSLLRHKYEHTGKRPHECGICKKAFKHKHHLIEHMRLHSGEKPYQCDKCGKRFSHSGSYSQHMNHRYSYCKREAEERDSTEQEEAGPEILSNEHVGARASPSQGDSDERESLTREEDEDSEKEEEEEDKEMEELQEEKECEKPQGDEEEEEEEEEVEEEEVEEAENEGEEAKTEGLMKDDRAESQASSLGQKVGESSEQVSEEKTNEA
B5: Ligand-dependent corepressor isoform 1 (protein, UniProt Q96JN0 1-433)
chain: MQRMIQQFAAEYTSKNSSTQDPSQPNSTKNQSLPKASPVTTSPTAATTQNPVLSKLLMADQDSPLDLTVRKSQSEPSEQDGVLDLSTKKSPCAGSTSLSHSPGCSSTQGNGRPGRPSQYRPDGLRSGDGVPPRSLQDGTREGFGHSTSLKVPLARSLQISEELLSRNQLSTAASLGPSGLQNHGQHLILSREASWAKPHYEFNLSRMKFRGNGALSNISDLPFLAENSAFPKMALQAKQDGKKDVSHSSPVDLKIPQVRGMDLSWESRTGDQYSYSSLVMGSQTESALSKKLRAILPKQSRKSMLDAGPDSWGSDAEQSTSGQPYPTSDQEGDPGSKQPRKKRGRYRQYNSEILEEAISVVMSGKMSVSKAQSIYGIPHSTLEYKVKERLGTLKNPPKKKMKLMRSEGPDVSVKIELDPQGEAAQSANESKNE

Biological target: Flag-HA-tagged CtBP2 (UniProt P56545)
Experiment: affinity purification with mass spectrometry; whole cell lysates of HeLa/FH-CtBP2 cells (untreated or treated with TSA); Flag antibody, elution with Flag peptide, then HA antibody beads; on-bead trypsin digestion and LC-MS; normal HeLa as control

Row | Molecule | binding
1 | Rho GTPase-activating protein 21 (from UniProt Q5T5U3 1-1958) | binds
2 | Transcriptional repressor p66-beta (from UniProt Q8WXI9 1-593) | binds
3 | Human Dead-Box Rna Helicase Ddx3x (from UniProt O00571 1-662) | binds
4 | Mi-2 protein (CHD4) (from UniProt Q14839 1-1912) | binds
5 | Histone deacetylase 2 (from UniProt Q92769 1-488) | binds
6 | B1 | binds
7 | B2 | binds
8 | B3 | binds
9 | B4 | binds
10 | B5 | binds
